Assay results

The results are deposited in PubChem (AID912; NCATS, 2007).

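Uptake of anthrax lethal toxin into cultured cells, read by FRET (460/530 nm ratio) and reported from the 460 nm channel; the cell line is not named here. Each compound was tested as a concentration series from about 0.0005 to 40 µM. The number is the fitted AC50 of the 460 nm signal alone; lower values mean a more potent effect. A falling signal goes with compounds filed as inhibitors or cytotoxic, a rising one with activators or fluorescent compounds (inferred from the filed classes).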

Values are in µM. Common to all entries: measured here: 460 nm channel. Part of the compounds only, not a random draw; the main read-out is not listed here. A potency from a partial, single-point or poor curve is only a rough figure. The first word of each remark tells which way the curve ran; it can be opposite to the aim of the assay.

| Compound | AC50 (µM) | curve as filed |
|---|---|---|
| `COc1ccccc1-c1nnc(SCC(=O)Nc2nc(-c3ccccc3)cs2)n1C` | 31.62 | falling, single point |
| `O=C1C(Cl)=C(N2CCN(Cc3ccccc3)CC2)C(=O)N1c1ccccc1` | 0.003981 | rising, full curve |
| `O=c1c(O)c(-c2cc(O)c(O)c(O)c2)oc2cc(O)cc(O)c12` | 2.512 | falling, full curve |
| `Cc1cc(C(=O)CSc2nnc(Cc3ccccc3)o2)c(C)n1Cc1ccc2c(c1)OCO2` | 12.59 | falling, partial curve |
| `Cc1ccc2cc(CN(C(=O)c3ccncc3)C(C)C)c(=O)[nH]c2c1` | 0.3162 | falling, full curve, poor fit |
| `COc1ccc2c(c1)[nH]c1c(C)nccc12` | 0.1585 | falling, full curve, poor fit |
| `COc1cccc(Cn2c(=O)c(-c3cccs3)nc3cnc(N4CCN(C)CC4)nc32)c1` | 1 | rising, full curve |
| `CC1=C(\C=C/C(C)=C/C=C\C(C)=C\CO)C(C)(C)CCC1` | 31.62 | falling, single point |
| `COc1ccccc1-c1nnc2sc(COc3ccc(Cl)cc3Cl)nn12` | 2.512 | falling, partial curve |
| `COc1ccc2c(c1)CCC(C)N2S(=O)(=O)c1ccc(C2CNC(=O)C2)cc1` (stereo not given) | 0.3981 | rising, single point |
| `CCOc1ccc(N2C(=O)CC(Sc3ncccn3)C2=O)cc1` (stereo not given) | 31.62 | rising, partial curve, poor fit |
| `c1csc(CNc2ccnc(-c3ccoc3)n2)c1` | 1.259 | falling, partial curve |
| `CCOC(=O)N1CCC(NC(=O)c2cccn3c(=O)c4cc(Br)ccc4nc23)CC1` | 31.62 | falling, single point |
| `COc1cc(OC)cc(-n2nnnc2SCC(=O)N2CCCc3ccccc32)c1` | 10 | falling, partial curve, poor fit |
| `OC1(c2ccccc2F)CCN(Cc2nnc(-c3ccccc3)o2)CC1` | 10 | rising, partial curve, poor fit |
| `CCOc1ccc(-c2n[nH]c(C)c2-c2ccccc2OC)c(O)c1` | 0.003981 | falling, full curve, poor fit |
| `CN(C)S(=O)(=O)c1cccc(-c2nnc(SCc3ccc4c(c3)OCCO4)o2)c1` | 31.62 | falling, single point |
| `CCc1ccccc1S(=O)(=O)Cc1ccc(C(=O)NCC2CCCO2)o1` (stereo not given) | 10 | falling, partial curve |
| `CC1=CC(=O)CC(C)(C)[C@@]1(O)/C=C\C(C)=C\C(=O)O` | 12.59 | falling, single point |
| `O=C(CCSc1nc(-c2ccc3c(c2)OCO3)cc(C(F)(F)F)n1)NCc1ccco1` | 3.162 | falling, single point |
| `O=C(CCCn1c(=S)[nH]c2cc3c(cc2c1=O)OCO3)N1CCN(c2ccc(F)cc2)CC1` | 1.259 | rising, full curve |
| `O=S(=O)(c1ccc2c(c1)OCCO2)N1CCC(n2nnc3cc(C(F)(F)F)ccc32)CC1` | 12.59 | falling, single point |
| `COC(=O)[C@@]1(Cc2ccc(OC)cc2)[C@H]2c3cc(C(=O)N4CCCC4)n(CCN4CNCC4=O)c3C[C@H]2CN1C(=O)c1ccccc1` | 12.59 | rising, single point |
| `CCCCN1C(=O)C(NC(C)=O)c2cc(Br)ccc21` (stereo not given) | 3.981 | rising, partial curve, poor fit |
| `COc1cccc(-c2nccc(NCCc3c[nH]c4ccc(OC)cc34)n2)c1` | 12.59 | falling, partial curve |
| `O=C(O)c1c(Sc2ccccc2)c2cc(Cl)ccc2n1Cc1ccc(Cl)cc1` | 19.95 | falling, single point |
| `O=C1C2C3C=CC(C3)C2C(=O)N1c1nccs1` (stereo not given) | 0.01259 | falling, full curve, poor fit |
| `CCOC(=O)c1sc(NC(=O)CSc2nnc(-c3ccco3)n2CC)c(C(=O)OCC)c1C` | 15.85 | falling, partial curve |
| `O=c1c(-c2ccccc2)nc2cnc(Oc3cccc(Cl)c3)nc2n1C[C@H]1CCCO1` | 3.162 | falling, single point |
| `COc1ccccc1CN1C(=O)c2ccncc2C1=O` | 10 | falling, single point |
| `O=C(CCCOc1ccc(Cl)cc1Cl)NCCCO` | 5.012 | rising, single point |
| `O=C1C2CC=CCC2C(=O)N1c1nc2n(n1)C(c1ccccc1)CC(c1ccccc1)N2` (stereo not given) | 5.012 | rising, partial curve |
| `Cc1ccsc1-c1nc(CSCC(=O)NCc2ccc3c(c2)OCO3)c(C)o1` | 10 | falling, single point |
| `C[C@@H](c1ccccc1)N1C(=O)[C@@H]2[C@H]3C(=CC[C@H]2C1=O)C(=O)[C@H]1O[C@H]1[C@H]3O` | 3.162 | rising, partial curve |
| `NC(=O)CN1C(=O)C(O)(CC(=O)c2ccccc2O)c2ccccc21` (stereo not given) | 0.1 | rising, single point |
| `Cc1cc(C(=O)CSC(=S)SC(C)(C)C)ccc1Cl` | 0.631 | falling, full curve |
| `CCC(Oc1ccccc1)C(=O)Nc1nnc(C(F)(F)F)s1` (stereo not given) | 0.03162 | falling, full curve, poor fit |
| `CCCCn1c(SCC(=O)NC(C)(C)C)nnc1-c1ccco1` | 3.981 | falling, single point |
| `c1cc(CNc2ccc3c(c2)OCCO3)ccn1` | 0.0631 | rising, full curve, poor fit |
| `O=S1(=O)CCN(c2ccccc2CC(c2c[nH]c3ccccc23)c2c[nH]c3ccccc23)CC1` | 3.162 | falling, single point |
| `O=C(NCc1ccncc1)c1cccc(F)c1` | 0.631 | falling, single point |
| `COc1cc(C2CC(=O)c3cnc(NC(=O)COc4ccccc4)nc3C2)cc(OC)c1OC` (stereo not given) | 1.995 | rising, full curve |
| `COc1ccc2[nH]cc(CCNc3ccnc(-c4cccc(C#N)c4)n3)c2c1` | 31.62 | falling, single point |
| `Cc1ccc(S(=O)(=O)N2CCN(C3CCN(Cc4ccccc4)CC3)CC2)cc1` | 5.012 | rising, single point |
| `COc1cccc(C(=O)Nc2ncc3c(n2)CC(c2ccc(OC)cc2OC)CC3=O)c1` (stereo not given) | 0.7943 | falling, full curve, poor fit |
| `COc1ccc(S(=O)(=O)N(CC(=O)O)c2ccccc2)cc1` | 0.01585 | falling, full curve, poor fit |
| `CCOC(=O)C1CCCN(Cc2ccc3c(c2)OCO3)C1` (stereo not given) | 0.01 | falling, partial curve, poor fit |
| `CC1(C)CCC(C)(C)c2cc(C(=O)Nc3ccc(C(=O)O)cc3)ccc21` | 31.62 | falling, single point |
| `COc1ccc(CN(C(=O)c2cccs2)c2nccs2)cc1OC` | 0.003981 | falling, full curve, poor fit |
| `CC(C)c1cc(C(=O)Nc2ccc3c(c2)OCO3)no1` | 3.981 | falling, partial curve |
| `Cc1ccc(S(=O)(=O)N(CC(O)CN2CCCC2)c2ccccc2)cc1` (stereo not given) | 31.62 | rising, single point |
| `COc1ccc(CC(=O)Nc2nc3n(n2)C(c2ccccc2)CC(=O)N3)cc1OC` (stereo not given) | 2.512 | rising, partial curve |
| `CCOCCCNc1nc2ccccc2[nH]1` | 12.59 | falling, partial curve |
| `COc1ccc(Br)cc1S(=O)(=O)N1CCOCC1` | 0.01 | falling, full curve, poor fit |
| `COc1ccc2nc(COC(=O)c3ccco3)c(C(C)=O)[n+]([O-])c2c1` | 31.62 | falling, partial curve |
| `CC(N)C12CC3CC(C1)CC(C(C)N)(C3)C2` (stereo not given) | 1.259 | falling, full curve |
| `CC(=O)NCCNc1ccnc(-c2ccccc2C(F)(F)F)n1` | 5.012 | falling, single point |
| `COCCn1c(=O)c(-c2cccs2)nc2cnc(N3CCN(C)CC3)nc21` | 10 | rising, partial curve |
| `Cc1ccc2cc(C(c3nnnn3C(C)(C)C)N3CCCC3)c(=O)[nH]c2c1C` (stereo not given) | 5.012 | rising, partial curve |

Once more, the final 5:

Compound	AC50 (µM)	curve as filed
COc1ccc2nc(COC(=O)c3ccco3)c(C(C)=O)[n+]([O-])c2c1	31.62	falling, partial curve
CC(N)C12CC3CC(C1)CC(C(C)N)(C3)C2 (stereo not given)	1.259	falling, full curve
CC(=O)NCCNc1ccnc(-c2ccccc2C(F)(F)F)n1	5.012	falling, single point
COCCn1c(=O)c(-c2cccs2)nc2cnc(N3CCN(C)CC3)nc21	10	rising, partial curve
Cc1ccc2cc(C(c3nnnn3C(C)(C)C)N3CCCC3)c(=O)[nH]c2c1C (stereo not given)	5.012	rising, partial curve